# Tested on: cTnI-G203S mice
# Experiment: Echocardiography of treated cTnI-G203S mice
# Assay type: in vivo, mouse
# Details: 10 μM i.p. 3×/wk/5 wk, mean
# Method: Male mice expressing the human cTnI gene encoding the human disease-causing mutation cTnI-G203S were used for all studies. The mice develop hallmark features of HCM by 21 wk ([7], [13]). Male mice expressing the normal human cTnI gene were used as controls (wt). Ten-week-old mice were used for in vitro studies. For in vivo studies, 20- or 30-wk-old cTnI-G203S mice were treated with 10 μM AID-TAT or AID[S]-TAT via intraperitoneal injection, 3×/wk/5 wk. In vivo dose of AID-TAT or AID[S]-TAT (10 μM) was calculated based on blood volume, equating to ∼2 mg/kg total BW. Male animal models were used to eliminate potential differences in responses due to sex. Experiments were performed in a total of 21 wt (AID[S]-TAT), 6 wt (AID-TAT), 15 cTnI-G203S (AID[S]-TAT), and 26 cTnI-G203S (AID-TAT) mice. All animals were randomly assigned to treatment groups. All animal studies were approved by the Animal Ethics Committee of The University of Western Australia in accordance with the 2013 Australian Code for the Care and Use of Animals for Scientific Purposes ([58]).
# Echocardiographic measurement of left ventricular function were performed on mice under light methoxyflurane anesthesia using an i13L probe on a Vivid 7 Dimension ultrasound system (GE Healthcare), as previously described ([13], [29], [30]). Each n represents the average of quantitative measurements from wt or cTnI-G203S mice for each treatment group. Detailed methods are provided in SI Appendix.
# Echocardiographic measurement of left ventricular function were performed on mice under light methoxyflurane anesthesia using an i13L probe on a Vivid 7 Dimension ultrasound system (GE Healthcare, Little Chalfont, United Kingdom) as previously described (4, 7). Echocardiographic measurements were taken on M-mode in triplicate from separate mice at a sweep speed of 200 mm/s. Each n represents the average of quantitative measurements from wt or cTnI-G203S mice for each treatment group. […] FS was calculated by the formula [(LVEDD-LVESD)/EDD] x 100. […]
# [1] = Pre-HCM treatment (from 20 wk), 25-wk-old cTnI-G203S mice, n = 7 AID(S)-TAT, n = 6 AID-TAT
Sequence,HR [1],"HR (Post-HCM treatment (from 30 wk), 35-wk-old cTnI-G203S mice, n = 5)"
"QKILGEWDLAQYTDQELE [AID(S)-TAT, reference compound]",450 bpm,
QQLEEDLKGYLDWITQAE [AID-TAT],452 bpm,450 bpm

# Source: publication PMC7502707, “Characterization and validation of a preventative therapy for hypertrophic cardiomyopathy in a murine model of the disease” (Proceedings of the National Academy of Sciences of the …, 2020)
